Reference: the supplement of paper PMC3334620
The full ranking holds about 33,000 sequences; the median of “E-score (-0.5 to 0.5)” is about -0.0059, and the highest 2% start at about 0.26. The list shows a part of the results.

target: T1, Cin5 (UniProt P40917); test: PBM E-score (8-mer binding enrichment) (E-score (-0.5 to 0.5)); higher = stronger / more preferred TF binding; conditions: protein concentration: 100 nM; construct: GST-full length
T1 sequence: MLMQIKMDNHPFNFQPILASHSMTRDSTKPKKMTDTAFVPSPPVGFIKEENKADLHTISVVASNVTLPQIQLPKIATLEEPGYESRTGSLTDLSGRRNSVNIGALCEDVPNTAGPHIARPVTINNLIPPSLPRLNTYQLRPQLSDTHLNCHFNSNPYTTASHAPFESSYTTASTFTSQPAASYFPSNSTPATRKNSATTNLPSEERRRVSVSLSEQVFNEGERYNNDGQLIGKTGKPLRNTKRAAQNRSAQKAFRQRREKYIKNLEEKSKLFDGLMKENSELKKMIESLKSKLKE
Method: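 Universal 'all 10-mer' protein binding microarrays (Agilent AMADID 015681) probed with GST-tagged S. cerevisiae TFs (full-length or DBD) made by in vitro transcription/translation (PURExpress), about 100-200 nM. Bound TF was detected with fluorescent anti-GST. Each ungapped 8-mer (which stands for itself and its reverse complement) is scored by the PBM enrichment score (E-score), a modified Wilcoxon-Mann-Whitney statistic from -0.5 to +0.5, computed with the Universal PBM Analysis Suite. Scale: above 0.35 generally sequence-specific binding.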

Row | Sequence | PBM E-score
1 | AAGATGCT | 0.0346
2 | GCGACAGC | -0.171
3 | CCAATCCA | -0.0865
4 | ACTCCAGC | -0.192
5 | CCCGTCCG | -0.161
6 | CCTCGACG | -0.239
7 | CGGCCCAG | -0.324
8 | ACCGTCAT | 0.0288
9 | ACCACTAG | 0.00962
10 | CAGGGGTA | -0.122
11 | CGCTAGCG | -0.168
12 | AACCTTGT | -0.25
13 | TCTTCCCA | -0.177
14 | TACCGATA | -0.00738
15 | CAATTTTA | 0.176
16 | AGGGTTGG | 0.00389
17 | AATTGTCT | 0.189
18 | GCCTCAGA | -0.125
19 | CAACCCCG | -0.0495
20 | CGAACTCC | -0.0155
21 | GCCTATAA | -0.0026
22 | GCGGACAC | -0.0603
23 | AACCCAGC | -0.0502
24 | AAAGCTGG | -0.0777
25 | GTGTCAAC | -0.157

Row | Sequence | PBM E-score
26 | AGAATTTG | -0.04
27 | CACAGTCG | -0.2
28 | ATGCAACA | 0.0593
29 | AACCAGGG | -0.107
30 | TATATCCA | 0.197
31 | GTAGGAAA | -0.0682
32 | GCTCCGTA | -0.0277
33 | ATATATAC | 0.316
34 | AGCTCCCG | -0.36
35 | CATTCAAA | 0.209
36 | ACGATCAG | 0.00253
37 | CTGAGCCA | -0.0218
38 | TGAAAGCA | 0.14
39 | AACATCTC | -0.0251
40 | GCTCCAAC | 0.0634
41 | GTAACCTA | 0.142
42 | AAACTTTG | 0.0632
43 | AACGAAAC | 0.176
44 | GGCGTCAC | -0.0205
45 | GGGCCCTA | -0.277
46 | CTTCCACA | -0.0959
47 | ATCGCCAC | 0.23
48 | AGGATTAC | 0.225
49 | CCTAAAAC | -0.151
50 | TACTCATA | 0.0992

Shown in CSV form: entries from further up.
Row,Sequence,PBM E-score
38,TGAAAGCA,0.14
39,AACATCTC,-0.0251
40,GCTCCAAC,0.0634
41,GTAACCTA,0.142
42,AAACTTTG,0.0632
43,AACGAAAC,0.176

Additional results.

Row | Sequence | PBM E-score
51 | ATGTTAAG | 0.06
52 | GAAATCCC | 0.025
53 | ACGAGCTA | -0.125
54 | GGTCTGGA | -0.172
55 | CTTGATAC | -0.109
56 | GAGCACTC | -0.151
57 | GGACACCA | 0.0677
58 | CAGGCGCC | -0.114
59 | AAGCGCAC | 0.00726
60 | GCCATAAC | -0.0557
61 | ACGGGTAT | 0.0916
62 | CAACATCG | 0.136
63 | GGCAACTA | 0.0726
64 | GCTTTACA | -0.0427
65 | ACATAGGG | -0.135
66 | CGGATCAG | -0.0152
67 | GATAAACA | 0.121
68 | CTCGTTAA | -0.0492
69 | AATTCGGA | 0.163
70 | GGCGTCCA | -0.184
71 | CAACGTTG | 0.0938
72 | ATCTTTGC | 0.0911
73 | ACGTTTAA | 0.125
74 | GCAAACAA | 0.252
75 | AGTCAAAC | -0.196

Row | Sequence | PBM E-score
76 | CGAGGCTA | -0.124
77 | CAAGTAAC | 0.143
78 | CAACTAAA | 0.142
79 | AACGAGTT | -0.118
80 | GCCATCAC | -0.0665
81 | CCCATTGA | -0.05
82 | ATGTATGA | 0.189
83 | GCACTCTA | 0.0406
84 | AGAATACT | 0.154
85 | AACTAGTA | 0.123
86 | AAGTGTCC | -0.0989
87 | AGCCTTGG | -0.028
88 | CAACCAGA | 0.0831
89 | CCCAGAAG | -0.167
90 | TATGAATA | 0.197
91 | AGTACCTA | 0.103
92 | CACTTTCA | -0.105
93 | AGTTAACA | 0.175
94 | GTAAACAC | 0.0469
95 | GCATGACC | -0.135
96 | GACCGTCA | -0.203
97 | AACAGCAT | 0.0952
98 | CCATACCG | 0.13
99 | ATAGGGCA | -0.0914
100 | CGTGCACA | -0.132

Shown with each value named: part of the list above
CCCATTGA
  PBM E-score: -0.05
ATGTATGA
  PBM E-score: 0.189
GCACTCTA
  PBM E-score: 0.0406
AGAATACT
  PBM E-score: 0.154

Following part.

Row | Sequence | PBM E-score
101 | AGTTCGAC | -0.0444
102 | AATGACCA | 0.169
103 | TCGGAAAA | 0.164
104 | GCTCCGCA | -0.16
105 | ATGCATTC | 0.163
106 | CCCTCGAA | -0.161
107 | GCAACTTA | 0.105
108 | GTGCTAAA | 0.00722
109 | ACCACTAC | -0.0107
110 | CATAGCCG | 0.0425
111 | CCAGGGCA | -0.165
112 | CCCAGGAG | -0.259
113 | ACGGGATA | 0.178
114 | ATAAGGTC | 0.13
115 | AGTACTTA | -0.00452
116 | AGCCAACG | -0.115
117 | GACATATC | 0.185
118 | AGCGAACT | 0.0556
119 | CCTCGAGC | 0.146
120 | CAGAACAA | 0.24
121 | AGGGTGCG | -0.241
122 | CGGGTCCA | -0.261
123 | CCGCGCGG | 0.307
124 | ACAATACA | 0.144
125 | TTAACAAA | 0.111

Reformatted as comma-separated lines: entries from further up.
Row,Sequence,PBM E-score
120,CAGAACAA,0.24
121,AGGGTGCG,-0.241

More records:

Row | Sequence | PBM E-score
126 | ACCAATAC | 0.104
127 | AGAGAGCA | -0.163
128 | CGATACAA | 0.181
129 | CACAAATA | 0.161
130 | GCGTCGCA | -0.162
131 | TCCCGCGA | -0.0676
132 | GAGATATC | 0.0943
133 | ACTTATGC | 0.0453
134 | CAAAACTC | 0.0756
135 | GGCGAACC | -0.0678
136 | CGCCGTAG | -0.174
137 | GCCCGCTA | -0.341
138 | CGAATTAC | 0.0723
139 | TGATGACA | 0.105
140 | CCCCATTC | -0.064
141 | GAAACTGC | -0.14
142 | TAATCATA | 0.326
143 | CGAGTTCC | 0.0721
144 | ATGCCACA | 0.056
145 | GGAGGTAC | -0.161
146 | AGGAGCGG | -0.27
147 | AAGGCCAC | -0.132
148 | CCACCAGC | -0.0851
149 | GACGCCGA | 0.0841
150 | GCCGGGAC | -0.266

Row | Sequence | PBM E-score
151 | CAGGGCGG | -0.207
152 | AACAACGA | 0.0177
153 | GCGGTCAC | -0.155
154 | AGGTCACA | -0.0344
155 | AATGACAA | 0.243
156 | TAGGCGAA | 0.0125
157 | AGGACCTA | 0.0838
158 | CGCAGGCG | -0.283
159 | ACGAGACC | -0.0255
160 | CCTCGTAA | 0.249
161 | AGCGATAG | -0.127
162 | CCATGTTA | 0.125
163 | AACTTCTA | -0.00178
164 | ACAGAGAG | -0.112
165 | TAATACCA | 0.279
166 | AGCGTCGG | -0.0408
167 | CCAGTTTA | 0.0208
168 | ATAGCAAC | 0.18
169 | AAGAGGGA | -0.178
170 | TCGCCGCA | -0.0487
171 | CGACGCAA | -0.119
172 | AGGTGTGA | -0.0127
